# From PubChem BioAssay AID743255 (National Center for Advancing Translational Sciences (NCATS), 2014)
# Amino acid sequences for entries named in this document (tags omitted). A change or cut given only in a name is not applied to a line headed by its entry.
# UniProt O94782: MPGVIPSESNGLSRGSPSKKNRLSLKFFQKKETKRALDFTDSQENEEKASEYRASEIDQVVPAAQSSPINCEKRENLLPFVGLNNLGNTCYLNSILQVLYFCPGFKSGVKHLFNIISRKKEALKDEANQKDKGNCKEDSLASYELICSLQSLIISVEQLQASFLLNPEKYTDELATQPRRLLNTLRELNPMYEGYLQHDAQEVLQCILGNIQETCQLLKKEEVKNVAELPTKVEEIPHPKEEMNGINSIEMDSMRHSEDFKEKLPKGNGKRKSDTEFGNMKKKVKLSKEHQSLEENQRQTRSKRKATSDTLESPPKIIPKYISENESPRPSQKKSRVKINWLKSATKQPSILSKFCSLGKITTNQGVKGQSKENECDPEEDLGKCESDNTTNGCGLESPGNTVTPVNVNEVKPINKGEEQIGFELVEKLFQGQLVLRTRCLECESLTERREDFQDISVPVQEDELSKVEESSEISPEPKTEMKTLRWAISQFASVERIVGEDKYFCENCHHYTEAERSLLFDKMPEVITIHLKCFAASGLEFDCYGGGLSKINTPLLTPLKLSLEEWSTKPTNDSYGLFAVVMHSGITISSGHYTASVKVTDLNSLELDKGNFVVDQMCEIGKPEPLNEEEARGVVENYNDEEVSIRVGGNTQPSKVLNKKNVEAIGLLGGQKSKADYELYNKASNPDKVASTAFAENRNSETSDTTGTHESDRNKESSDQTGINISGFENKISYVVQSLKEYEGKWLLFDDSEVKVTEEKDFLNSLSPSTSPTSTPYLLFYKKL
# The whole screen tested about 390,000 compounds, of which about 910 (0.23%) were called active. This list was built around the results that the source calls inconclusive (neither active nor inactive); the mix of calls is not that of the screen. Calls come from the whole dose curve; as a rule, active = well fitted inhibition curve with a large enough effect; inconclusive = small, poorly fitted or top-dose-only effect; inactive = no such curve, though single readings can be large or run the other way. Potencies of inconclusive entries are doubtful fits and often do not repeat.
# Molecular target: Ubiquitin carboxyl-terminal hydrolase 1 (Homo sapiens) (UniProt O94782)
# Assay: Inhibitors of USP1/UAF1: Primary Screen; note: nearly all actives have a fitted effect of over 60% in size
# Settings: recombinant USP1/UAF1, Ub-Rhodamine cleavage fluorescence; activity change, negative = inhibition: at 57.1 µM (top of the series)
# Summary of the method: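 1 nM enzyme complex + cpd, 15 min RT; start with Ub-Rho 150nM final; kinetic fluorescence ex 480/em 540, 6 reads q60 s. Buffer 50mM HEPES pH 7.8, 0.5mM EDTA, 0.1 mg/ml BSA, 1mM TCEP, 0.01% Tween-20.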
# % is set by controls: 0 for no effect and ±100 for the full control effect; potency is the fitted concentration of half-maximal effect.
SMILES,Potency,"activity change, negative = inhibition"
COc1ccc(CCNC(=O)Cn2cnc3c(nnn3Cc3ccc(C)cc3)c2=O)cc1OC,"inconclusive: 31.6 µM [inhibitor, single point]",
CCCN1CCN(CCCNC(=O)Cn2nc(C)n3c(cc4c(OC)cccc43)c2=O)CC1,"inconclusive: 2.82 µM [inhibitor, partial curve]",
COc1ccccc1/C=C\C=N\n1c(C2CCCCC2)n[nH]c1=S,"inconclusive: 44.7 µM [inhibitor, partial curve, poor fit]",
COc1ccc2c(/C=C/c3cc[n+](C)cc3)c[nH]c2c1,"inconclusive: 44.7 µM [inhibitor, partial curve]",
Cc1ccccc1OCc1nc(C#N)c(N2CCCC2)o1,,inactive: -12%
CSc1nnc(-c2ccc(S(=O)(=O)N3CCCC3)cc2)n1C,,inactive: -8.87%
COc1ccccc1[C@H]1C(c2cccc(Cl)c2)=NN(c2ccccc2)[C@@H]1CO,"inconclusive: 50.1 µM [inhibitor, partial curve, poor fit]",
CCOC(=O)N1CCc2c(sc(NC(C)=O)c2C(N)=O)C1,"inconclusive: 1.12 µM [inhibitor, full curve, poor fit]",
COc1ccc(-c2ccc3c(N)c(C(=O)NCc4ccc(C)cc4)sc3n2)cc1,,inactive: -1.84%
COc1ccccc1OCCCCN1CCN(c2ccccc2OC)CC1,,inactive: -0.445%
O=C(O)c1ccccc1Sc1ccccc1S(=O)(=O)NC1CCCCC1,,inactive: -21.2%
Cc1ccc(S(=O)(=O)N2[C@@H](c3ccc(Br)cc3)C(C(=O)O)=CC[C@H]2c2ccc(Cl)c(Cl)c2)cc1,"inconclusive: 50.1 µM [inhibitor, partial curve, poor fit]",
CCCCCCCCC/C(=N\O)c1ccccn1,"inconclusive: 39.8 µM [inhibitor, partial curve]",
Cn1cnc([N+](=O)[O-])c1S(=O)(=O)Oc1ccc(Cl)cc1,"inconclusive: 28.2 µM [inhibitor, partial curve]",
CC1(C)CC(=O)C(C(C2=C(O)CC(C)(C)CC2=O)c2ccco2)C(=O)C1 (stereo not given),,inactive: -11.1%
Fc1ccc(N=C2NN=C(c3cc(F)ccc3F)CS2)cc1,"inconclusive: 17.8 µM [inhibitor, partial curve]",
COc1ccc(-c2cn3c(C)c(C(=O)N4CCc5ccccc5C4)sc3n2)cc1,,inactive: -8.62%
COc1cc([N+](=O)[O-])ccc1NC(=O)Nc1nc2c(s1)CCCC2,"inconclusive: 50.1 µM [inhibitor, partial curve, poor fit]",
COc1cccc(OCc2nnc(SCc3cc(=O)[nH]c4ccccc34)o2)c1,,inactive: -15.2%
CCN1CCN(c2cc(C)c3cc(NC(=O)c4cc(OC)cc(OC)c4)ccc3n2)CC1,"inconclusive: 7.94 µM [inhibitor, partial curve]",

# 2 compounds picked at random from the list so far, as already listed:
SMILES,Potency,"activity change, negative = inhibition"
CC1(C)CC(=O)C(C(C2=C(O)CC(C)(C)CC2=O)c2ccco2)C(=O)C1 (stereo not given),,inactive: -11.1%
COc1ccccc1OCCCCN1CCN(c2ccccc2OC)CC1,,inactive: -0.445%
